PubChem BioAssay AID743454 | Peter MacCallum Cancer Centre – 2014
Screen: 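Genes whose loss kills vorinostat-resistant colon cancer cells under vorinostat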 (primary screen). Cells: human HCT116-VR colon cancer cells, selected for vorinostat resistance. Reagent: siRNA pool against human genes, 40 nM siRNA pool. Timing: vorinostat for 24 h, read-out about 72 h after transfection. Challenge: vorinostat at 2.5 µM final. Measurement: 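Two measures, CellTiter-Fluor viability and luminescent caspase 3/7 activity, each as fold change against same-plate mock wells, mean of duplicates, then screen-wide robust z-score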. Reading the numbers: viability robust z-score: higher = more viable cells than screen typical; caspase robust z-score: higher = more caspase 3/7 activity than screen typical. Hit rule: 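Hits are knock-downs in viability class RV1/RV2 or caspase class CA1/CA2, excluding ones that killed cells in the no-drug cell-count arm; hits then retested with single siRNAs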.
Shown is a random part of about 18,000 deposited reagents. 450 of all reagents (2.5%) count as active. 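Single biological run; no consistent viability z cut-off exists, so the class columns, not z-scores, define the calls.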

no.	target gene	viability hit class	caspase hit class	viability robust z-score	caspase robust z-score	outcome
1	MPO	no change	no change	1.03	-0.08	inactive
2	SPATA16	no change	no change	0.22	3.08	inactive
3	MRPL21	no change	no change	1.14	-0.94	inactive
4	ODAPH	no change	no change	0.7	-0.93	inactive
5	UXS1	no change	no change	-0.3	0.93	inactive
6	CD96	no change	no change	0.36	-0.76	inactive
7	GAB1	no change	no change	-0.79	2.96	inactive
8	MMADHC	no change	no change	-0.03	-0.67	inactive
9	QNG1	no change	no change	-0.16	1.15	inactive
10	ICAM3	no change	no change	-1.7	2.21	inactive
11	OPN1LW	no change	no change	0.46	-0.2	inactive
12	RNF38	no change	no change	0	-0.7	inactive
13	CCNA2	no change	no change	-1.52	3.71	inactive
14	OR2T5	no change	no change	0.3	0.97	inactive
15	NDRG1	no change	no change	1.1	1	inactive
16	ADTRP	no change	CA1 (caspase activation)	0.22	5.21	active
17	GUCY1B1	no change	no change	-4.43	1.17	inactive
18	PROKR1	no change	no change	-0.92	-0.58	inactive
19	PPP1R8	no change	no change	0.02	1.29	inactive
20	MRPS15	no change	no change	-0.82	-0.18	inactive
21	FKBPL	no change	no change	1.33	-0.34	inactive
22	SFT2D2	no change	no change	0.84	0.96	inactive
23	PRSS38	no change	no change	-3.16	1.33	inactive
24	PLPP3	no change	no change	-0.39	-1.23	inactive
25	ZNF207	no change	no change	-1.69	-0.4	inactive
26	ALG12	no change	no change	0.54	0.1	inactive
27	DYNLT1	no change	no change	-0.03	1.14	inactive
28	CLIC5	no change	no change	-0.16	3.23	inactive
29	RBM15B	no change	no change	-0.46	2.78	inactive
30	HOXB9	no change	no change	1.12	-0.27	inactive
31	BTBD1	no change	no change	-1.77	-1.27	inactive
32	FGA	no change	no change	-2.01	-0.72	inactive
33	AGAP2	no change	no change	-1.64	0.88	inactive
34	ASMTL	no change	no change	-3.42	2.73	inactive
35	IL7	no change	no change	-0.05	0.15	inactive
36	KCTD17	no change	no change	-0.49	2.09	inactive
37	MOSPD1	no change	no change	-0.74	0.83	inactive
38	NRK	no change	no change	1.42	0.4	inactive
39	COPE	no change	no change	-0.01	-0.1	inactive
40	SBF1	no change	no change	0.72	0.34	inactive
41	RUFY2	no change	no change	1.23	-0.67	inactive
42	MTR	no change	no change	0.22	-0.61	inactive
43	FAM89A	no change	no change	-2.08	0.76	inactive
44	TRH	no change	no change	-2.14	1.14	inactive
45	LPA	no change	no change	0.05	-0.04	inactive
46	SASH3	no change	no change	-1.62	-0.15	inactive
47	STARD10	no change	no change	-1.14	1.27	inactive
48	MDFIC	no change	no change	-0.94	0.3	inactive
49	ZNF285	no change	no change	1.13	0.66	inactive
50	CDCA7	no change	no change	-0.44	1.04	inactive
51	ILDR1	no change	no change	-0.36	0.4	inactive
52	TBK1	no change	no change	0.09	0.58	inactive
53	LUC7L	no change	no change	-2.32	1.15	inactive
54	LACTB	no change	no change	0.94	-0.04	inactive
55	YIF1A	no change	no change	0.01	-0.08	inactive
56	DUSP16	no change	no change	0.39	0.31	inactive
57	VPS33A	no change	no change	1.14	-0.42	inactive

Records above with an active call (1):
target gene	viability hit class	caspase hit class	viability robust z-score	caspase robust z-score	outcome
ADTRP	no change	CA1 (caspase activation)	0.22	5.21	active
